Results on 31 molecules are retold here after PubChem BioAssay AID248 (DTP/NCI, 2004).

SMILES strings stand for the structures. The list shows only some results of the screen, not a fair sample: it gathers tests that were run many times, whatever their T/C, doses with no T/C, and many T/C values between a quarter and a half above the control. Other doses and runs of a compound stand elsewhere. T/C is the treated group as % of the vehicle group. Some doses have a count of surviving animals in place of a T/C: the source files T/C as zero there, which appears to mark a toxic dose or a test without result, not a measured value. Some survivor counts are full or nearly so, which does not show that the dose was tolerated: the source hardly ever lists a survival T/C far under the control, and the zero likely stands for such cases as well. Counts of survivors are from the toxicity check (mostly the fifth day) where no day follows; animals may have died later. Schedules are NCI's codes, read here as Q, the interval in days (D) or hours (H), X, the number of doses. Some schedules carry Z or #; the key to these is not given. Where survival is the endpoint, this PubChem deposit counts one and a half times the control or more as active, and values a quarter to a half above the control carry no call in these data; other NCI protocols may use other cut-offs.

This assay relates to L1210 leukemia ip in BDF1 mice, survival T/C. The assay can be described thus: NCI In Vivo Anticancer Drug Screen. Data for tumor model L1210 Leukemia (intraperitoneal) in B6D2F1 (BDF1) mice. To be noted: T/C endpoint: mean survival time, higher T/C = longer survival.
The mark [1] stands for this setting: dose: 100.0 mg/kg/injection, schedule: Q01DX009 (ip), vehicle: saline with Tween-80.
Where [2] appears, read: dose: 200.0 mg/kg/injection, schedule: Q01DX009 (ip), vehicle: saline with Tween-80.
Where [3] appears, read: dose: 400.0 mg/kg/injection, schedule: Q01DX009 (ip), vehicle: saline with Tween-80.
Where [4] appears, read: dose: 400.0 mg/kg/injection, schedule: Q04DX003 (ip), vehicle: Klucel (hydroxypropylcellulose) (HPC).
Setting [5] is: dose: 200.0 mg/kg/injection, schedule: Q04DX003 (ip), vehicle: Klucel (hydroxypropylcellulose) (HPC).
Where [6] appears, read: dose: 300.0 mg/kg/injection, schedule: Q01DX001 (ip), vehicle: saline.
Where [7] appears, read: dose: 100.0 mg/kg/injection, schedule: Q04DX003 (ip), vehicle: saline.
Setting [8] is: dose: 200.0 mg/kg/injection, schedule: Q04DX003 (ip), vehicle: saline with Tween-80.
[9] abbreviates: dose: 200.0 mg/kg/injection, schedule: Q04DX003 (ip), vehicle: saline.
The mark [10] stands for this setting: dose: 400.0 mg/kg/injection, schedule: Q04DX003 (ip), vehicle: saline with Tween-80.
Where [11] appears, read: dose: 400.0 mg/kg/injection, schedule: Q04DX003 (ip), vehicle: saline.
Setting [12] is: dose: 400.0 mg/kg/injection, schedule: Q04DX002 (ip), vehicle: Klucel (hydroxypropylcellulose) (HPC).
The mark [13] stands for this setting: dose: 200.0 mg/kg/injection, schedule: Q01DX009 (ip), vehicle: Klucel (hydroxypropylcellulose) (HPC).
Where [14] appears, read: dose: 400.0 mg/kg/injection, schedule: Q01DX009 (ip), vehicle: Klucel (hydroxypropylcellulose) (HPC).
Setting [15] is: dose: 400.0 mg/kg/injection, schedule: Q01DX001 (ip), vehicle: saline.

Regarding `C#CCOC(=O)C1C2CCC(O2)C1C(=O)O` (configuration not stated), the survivor count (dose: 5.0 mg/kg/injection, schedule: Q01DX009 (ip), vehicle: saline) is reported as 1 of 6; the survivor count (dose: 10.0 mg/kg/injection, schedule: Q01DX009 (ip), vehicle: saline with Tween-80) is given as 0 of 6; the survivor count (dose: 20.0 mg/kg/injection, schedule: Q01DX009 (ip), vehicle: saline with Tween-80) is on record as 0 of 6; the survivor count (dose: 40.0 mg/kg/injection, schedule: Q01DX009 (ip), vehicle: saline with Tween-80) is reported as 0 of 6; the survivor count under setting [1] is 0 of 6; the survivor count under setting [2] is 0 of 6. Also, under setting [3], the survivor count is 0 of 6.

For the molecule `Cc1n(CCBr)c([N+](=O)[O-])c[n+]1C1N=C(c2ccccc2)c2cc(Cl)ccc2NC1=O` (configuration not stated), under setting [4], the survivor count was 2 of 3.

Turning to `CCCCNc1c(C2=NCCN2)cnc2c1cnn2CC`, the survivor count is, setting by setting: under setting [5], 0 of 3; under setting [4], 0 of 3.

On to `BrP(Nc1ccccc1)(c1ccccc1)(c1ccccc1)c1ccccc1`, for which the survivor count (dose: 75.0 mg/kg/injection, schedule: Q01DX001 (ip), vehicle: saline) is reported as 1 of 6; the survivor count (dose: 150.0 mg/kg/injection, schedule: Q01DX001 (ip), vehicle: saline) was 0 of 6; the survivor count under setting [6] was 0 of 6.

Turning to `CC(CN1CCN(C)CC1)CN1c2ccccc2Sc2ccc(C(F)(F)F)cc21` (configuration not stated), the survivor count was 2 of 4 under setting [7]; 0 of 6 under setting [8]; 0 of 4 under setting [9]; 0 of 6 under setting [10]; 0 of 4 under setting [11].

Regarding `COc1ccc(C2OCC(c3ccccc3)O2)cc1` (configuration not stated), the survivor count (dose: 333.0 mg/kg/injection, schedule: Q01DX Z (ip), vehicle: methylcellulose (MC)) was 6 of 6.

Take `CC(=O)Oc1cc(C)c(OC(C)=O)c(C)c1C`: the survivor count is recorded as 2 of 6 under setting [8] and 0 of 6 under setting [10].

For the molecule `Cc1cnc(C#N)c(C#N)n1`, the survivor count is, setting by setting: (dose: 100.0 mg/kg/injection, schedule: Q04DX002 (ip), vehicle: Klucel (hydroxypropylcellulose) (HPC)) 0 of 3; (dose: 200.0 mg/kg/injection, schedule: Q04DX002 (ip), vehicle: Klucel (hydroxypropylcellulose) (HPC)) 0 of 3; under setting [12], 0 of 3.

With `O=[N+]([O-])c1ccc(/C=N/N(Cc2ccccc2)c2ccccc2)s1`, the survivor count under setting [8] is reported as 6 of 6.

For `NC(=O)c1ccccc1OC(=O)Nc1cc([N+](=O)[O-])ccc1F`, the survivor count was 6 of 6 under setting [13] and 6 of 6 under setting [14].

In the case of `Nc1ccc(OCc2ccc(S(=O)(=O)F)c(Cl)c2)c(Cl)c1`, the survivor count (dose: 400.0 mg/kg/injection, schedule: Q01DX009 (ip), vehicle: other) is on record as 1 of 6.

Turning to `O=C(O)c1cccc2c1-c1ccccc1C(Br)C2Br` (configuration not stated), the survivor count reads like this: (dose: 100.0 mg/kg/injection, schedule: Q04DX002 (ip), vehicle: saline with Tween-80) 3 of 3; (dose: 400.0 mg/kg/injection, schedule: Q04DX002 (ip), vehicle: saline with Tween-80) 2 of 3.

`O=C1OC(=O)C2C3C=CC(O3)C12` (configuration not stated): the survivor count was 0 of 6 (dose: 50.0 mg/kg/injection, schedule: Q01DX009 (ip), vehicle: saline with Tween-80); 3 of 3 under setting [1]; 2 of 6 under setting [7]; 0 of 3 under setting [2]; 0 of 6 under setting [9]; 0 of 6 under setting [11].

With `CC(C)=NC(=O)NO.[Cl][Mn][Cl]`, the survivor count by setting is: under setting [6], 1 of 6; (dose: 300.0 mg/kg/injection, schedule: Q01DX009 (ip), vehicle: saline) 0 of 6.

As to `CC(=O)c1cccc(NC(=O)Oc2cc(=O)oc3ccccc23)c1`, the survivor count was 4 of 6 under setting [13] and 1 of 6 under setting [14].

Turning to `CC(C)C1N=C(N)N=C(N)N1c1ccc(Cl)c(Cl)c1` (configuration not stated), the survivor count under setting [6] was 0 of 6.

On to `COC(=O)c1ccccc1N=NN(C)CC(C)C`, for which the survivor count by setting is: under setting [2], 2 of 6; under setting [8], 4 of 6.

In the case of `CN(N=O)C(=O)NCCn1cnc2c(=S)nc[nH]c21`, the survivor count is, setting by setting: (dose: 200.0 mg/kg/injection, schedule: Q01DX Z (ip), vehicle: carboxymethylcellulose (CMC)) 1 of 6; (dose: 250.0 mg/kg/injection, schedule: Q01DX Z (ip), vehicle: carboxymethylcellulose (CMC)) 1 of 6; (dose: 300.0 mg/kg/injection, schedule: Q01DX Z (ip), vehicle: carboxymethylcellulose (CMC)) 3 of 6.

With `O=C(O)c1ccc(NC(=O)c2ccc3ccccc3c2O)cc1`, under setting [3], the survivor count is 0 of 6.

For `CC(C)Nc1ccc(O)cc1`, the survivor count under setting [12] is given as 3 of 3.

Regarding `NCC(=O)c1ccc(Cl)cc1`, under setting [15], the survivor count is listed as 0 of 6.

`NCCc1c[nH]c2ccccc12`: under setting [15], the survivor count was 0 of 4.

`OC(CCl)C(O)C(O)C(O)CCl` (configuration not stated): where the note is “dose: 100.0 mg/kg/injection, schedule: Q01DX001 (ip), vehicle: saline”, the T/C is 132 % of control.

On to `COc1cc2cc(-c3cc(OC)c(OC)c(OC)c3)c3c(c2cc1OC)CNC3`, for which the survivor count (dose: 200.0 mg/kg/injection, schedule: Q01DX009 (ip), vehicle: water) is on record as 5 of 6 and the survivor count (dose: 400.0 mg/kg/injection, schedule: Q01DX009 (ip), vehicle: water) was 0 of 6.

As for `CC(C)S(=O)(=O)/C=C\S(=O)(=O)C(C)C`, the survivor count is, setting by setting: (dose: 12.5 mg/kg/injection, schedule: Q04DX003 (ip), vehicle: Klucel (hydroxypropylcellulose) (HPC)) 0 of 6; (dose: 25.0 mg/kg/injection, schedule: Q04DX003 (ip), vehicle: Klucel (hydroxypropylcellulose) (HPC)) 1 of 6; (dose: 50.0 mg/kg/injection, schedule: Q04DX003 (ip), vehicle: Klucel (hydroxypropylcellulose) (HPC)) 0 of 6; (dose: 100.0 mg/kg/injection, schedule: Q04DX003 (ip), vehicle: Klucel (hydroxypropylcellulose) (HPC)) 0 of 6; under setting [5], 0 of 6; under setting [4], 0 of 6.

For the molecule `O=C(O)C(F)(F)C(F)(F)F.[Ag]`, the survivor count is reported as 0 of 6 (dose: 150.0 mg/kg/injection, schedule: Q01DX001 (ip), vehicle: acetone) and 0 of 6 (dose: 300.0 mg/kg/injection, schedule: Q01DX001 (ip), vehicle: acetone).

As for `O=c1[nH]cc(O)c(=O)[nH]1`, the T/C was 125 % of control (dose: 400.0 mg/kg/injection, schedule: Q01DX Z (ip), vehicle: carboxymethylcellulose (CMC)) and 125 % of control (dose: 600.0 mg/kg/injection, schedule: Q01DX Z (ip), vehicle: carboxymethylcellulose (CMC)).

For `O=P1(N(CCF)CCF)NCCCO1` (configuration not stated), the survivor count by setting is: (dose: 100.0 mg/kg/injection, schedule: Q01DX Z (ip), vehicle: other) 0 of 6; (dose: 300.0 mg/kg/injection, schedule: Q01DX Z (ip), vehicle: other) 0 of 6.

As to `CCN(CC)CCC(=O)c1ccc2oc3ccccc3c2c1`, the survivor count reads like this: (dose: 200.0 mg/kg/injection, schedule: Q01DX001 (ip), vehicle: saline) 2 of 6; under setting [15], 1 of 6.

Take `[Cl][Ni+2][Cl].[NH-]CCN1CC1`: the survivor count is given as 0 of 6 under setting [7], 1 of 6 under setting [9] and 0 of 6 under setting [11].

With `CCCCn1c(O)c(C=N)c(=O)n(CCCC)c1=O`, the survivor count is, setting by setting: under setting [2], 2 of 6; under setting [3], 4 of 6.
